Assay results from patent publication US20250281465A1, “MOLECULES THAT ENHANCE EXTRACELLULAR VESICLE RELEASE” (priority 2022, published 2025).

Tested on: mBMDCs
Experiment: EV release from mBMDCs (differential ultracentrifugation, MRPS)
Details: vs EVveh

| SMILES | size distribution of EVs |
| --- | --- |
| C[C@H](CCC(=O)O)C[C@H](C)C[C@H](C)C(=O)/C=C(\O)[C@H](C)C[C@H](C)C/C=C/[C@@H](C)[C@@H](O)[C@@H](C)[C@@H](O)C[C@@H]1CC[C@@](C)([C@H]2CC[C@@](C)([C@@H](C)O)O2)O1 [ION, ionomycin, reference compound] | similar |
| CCOC(=O)c1c(NS(=O)(=O)c2cccc3nsnc23)sc(C)c1C [compound 634, Ethyl 2-(benzo[c][1,2,5]thiadiazole-4-sulfonamido)-4,5-dimethylthiophene-3-carboxylate] | similar |
